No constants are given. Whether binding was seen depends on the method and setting. Binding seen in cells or lysates may run through a third protein. Binding calls can cover weak binding; strength is not graded here. Where a sequence is shown, tags or fusion partners need not be part of it.
Molecular target: FLAG-tagged full-length cTAGE5 (FL, 1-804)
Test: co-IP; HEK293 cells co-transfected with Flag-tagged cTAGE5 (FL or mutants) and GFP-tagged LBR (FL or truncations); after 24 h lysates precipitated with Flag agarose beads, blot with anti-Flag or anti-GFP

B1: GFP-tagged LBR N (aa1-222) (domain or fragment, UniProt Q3U9G9 1-222)
chain: MPSRKFVEGEVVRGRWPGSSLYYEVEILSHDNKSQLYTVKYKDGTELELKESDIKPLKSFKQRKSGSISSSPSRRRGSRSRSRSRSRSRSPGRAPKGSRRSVSASHEGDVKEKKEKEMRREILQVKLTPLVLKPFGNSVSVYNGEPEHMEKNATPYKDKQERIILSTEDRYIVTQYSLRPRREEVKAKEIESEEQNLVTKGPAPLGTFQVTTPQRKDLEFGG
Question: With B1 as the binder, how does the binding read?
Answer: binds
